{"sequences": {"note": "Chains of the proteins cited; added tags and fusions are not shown. Lines headed by an entry give the natural chain unless they say otherwise; changes in a name come on top.", "UniProt Q01638": "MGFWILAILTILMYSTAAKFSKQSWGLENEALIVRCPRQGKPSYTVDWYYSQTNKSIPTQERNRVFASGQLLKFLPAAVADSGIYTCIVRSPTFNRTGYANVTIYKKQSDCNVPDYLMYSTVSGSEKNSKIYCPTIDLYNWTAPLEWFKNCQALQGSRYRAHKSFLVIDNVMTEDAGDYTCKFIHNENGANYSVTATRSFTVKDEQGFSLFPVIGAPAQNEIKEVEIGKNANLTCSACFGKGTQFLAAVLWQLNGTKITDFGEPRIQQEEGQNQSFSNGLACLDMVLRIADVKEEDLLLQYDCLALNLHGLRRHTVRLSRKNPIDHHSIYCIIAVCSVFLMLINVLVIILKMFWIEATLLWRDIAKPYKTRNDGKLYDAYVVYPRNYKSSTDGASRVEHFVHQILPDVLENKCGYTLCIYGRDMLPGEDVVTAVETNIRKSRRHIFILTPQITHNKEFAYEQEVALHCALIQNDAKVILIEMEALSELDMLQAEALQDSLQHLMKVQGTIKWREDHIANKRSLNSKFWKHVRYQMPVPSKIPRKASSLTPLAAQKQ"}, "source": "PubChem BioAssay AID1259354", "about": "(Paczesny and Yang Labs, IUPUI and University of Michigan, 2018)", "note": "Screen size: about 78,000 compounds; about 1,800 (2.3%) were called active. The inconclusive results got no clear call from the source; some entries with a clear call stand among them for comparison. Rule as the data show it: active = inhibition above about 30%; inconclusive = mostly about 10% to 28%; inactive = weaker than that. The source holds several records for some structures; these can differ, active in one and inactive in another.", "data": [{"biological_target": "Interleukin-1 receptor-like 1 (Homo sapiens) (UniProt Q01638)", "test": "blocks human ST2 binding to IL-33, primary screen, biochemical, AlphaLISA (AID 1259354)", "conditions": "AlphaLISA ST2-Fc/biotin-IL-33 interaction, 1 h; at 17 µM, stronger effect = higher value", "values": [{"smiles": "Cc1cc(NC(=O)CSc2nnc3c4ccccc4n(C(C)C)c3n2)no1", "inhibition": "inactive"}, {"smiles": "CCCCSc1nnc2c(n1)OC(c1cccn1C)N(C(C)=O)c1ccccc1-2", "note": "(stereo not drawn)", "inhibition": "inconclusive: 22%"}, {"smiles": "Cc1cc(N2CCCCC2)nc(N2CCN(S(=O)(=O)c3cccc(Cl)c3)CC2)n1", "inhibition": "inactive"}, {"smiles": "O=C(NCc1cccs1)c1cccn2c(=O)c3sccc3nc12", "inhibition": "inconclusive: 11%"}, {"smiles": "COc1ccccc1NC(=O)c1cnn(-c2ccccc2)c1C1CCNCC1", "inhibition": "inconclusive: 14%"}, {"smiles": "CCOc1ccc(C(=O)Nc2ccc(-c3nc4ncccc4o3)cc2)cc1", "inhibition": "inconclusive: 12%"}, {"smiles": "CN1CCN(C(=O)c2ccc(CS(=O)(=O)c3c(Cl)cccc3Cl)o2)CC1", "inhibition": "inconclusive: 17%"}, {"smiles": "CCCc1nnc(C[C@@H]2C[C@@H](C(C)C)[C@H](CN3CC[C@H](NC(C)=O)C3)C=C2C)o1", "inhibition": "inconclusive: 22%"}, {"smiles": "O[C@@H]1C[C@@H](c2nc(-c3ccc(OC(F)(F)F)cc3)no2)N(Cc2ccc(F)cc2)C1", "inhibition": "inconclusive: 14%"}, {"smiles": "COc1ccccc1CCN1CCCC(CN(C)Cc2cnc(SC)nc2)C1", "note": "(stereo not drawn)", "inhibition": "inconclusive: 11%"}, {"smiles": "COc1ccc(CN2C[C@H](O)C[C@H]2c2nc(-c3cccc([N+](=O)[O-])c3)no2)c(OC)c1OC", "inhibition": "inconclusive: 11%"}, {"smiles": "O=C1CCCC2=C1C(c1cccc(F)c1)n1nc(SCc3ccccc3)nc1N2", "note": "(stereo not drawn)", "inhibition": "inconclusive: 11%"}, {"smiles": "COc1cc(-c2ccc(NC(=O)C3CCCO3)c(OC)c2)ccc1NC(=O)C1CCCO1", "note": "(stereo not drawn)", "inhibition": "inconclusive: 13%"}, {"smiles": "Cc1cc(CN2CCCC2)ccc1Oc1ccc(-c2ccccc2)nn1", "inhibition": "inconclusive: 24%"}, {"smiles": "COc1ccc(CN2CCN(c3ccc([N+](=O)[O-])cc3)CC2)c(OC)c1", "inhibition": "inconclusive: 27%"}, {"smiles": "O=C(CSc1nnc2c(n1)[nH]c1ccccc12)c1ccc(Cl)cc1", "inhibition": "active: 32%"}, {"smiles": "CC1CC(C)(C)N(C(=O)Nc2cccc(Cl)c2)c2ccccc21", "note": "(stereo not drawn)", "inhibition": "inconclusive: 14%"}, {"smiles": "Cc1nnc(C(=O)N2CCC(Sc3ccccc3C)CC2)o1", "inhibition": "inconclusive: 19%"}, {"smiles": "Cc1cc(CN2CCN(C3Cc4ccccc4C3)CC2)n[nH]1", "inhibition": "inconclusive: 14%"}, {"smiles": "COc1cc2c(cc1CNc1nccc(CCC(F)(F)F)n1)OCCO2", "inhibition": "inconclusive: 28%"}, {"smiles": "OC1CCN(Cc2ccc(Br)s2)CC1", "inhibition": "inconclusive: 10%"}, {"smiles": "O=C(c1ccccc1)C1CCCCC1S(=O)(=O)O", "note": "(stereo not drawn)", "inhibition": "inactive"}, {"smiles": "COc1cccc(NC(=O)CN(c2ccc(Cl)c(Cl)c2)S(C)(=O)=O)c1", "inhibition": "active: 96%"}, {"smiles": "COC(=O)C1C(=O)C2=C(CC1C)NC(C)=C(C(=O)OC(C)C)C2c1ccccc1Br", "note": "(stereo not drawn)", "inhibition": "inactive"}, {"smiles": "COC(=O)C1=C(N)OC2=C(C(=O)CC(c3ccccc3)C2)C1c1ccc(C)cc1", "note": "(stereo not drawn)", "inhibition": "inconclusive: 14%"}, {"smiles": "CSc1cccc(NS(=O)(=O)c2ccccc2[N+](=O)[O-])c1", "inhibition": "inconclusive: 15%"}, {"smiles": "Cc1c(Br)c(C(F)(F)F)nn1CC(=O)NC(C)c1ccccc1", "note": "(stereo not drawn)", "inhibition": "inactive"}, {"smiles": "COCC(=O)N(C[C@H]1O[C@@H](CC(=O)NC(C)C)[C@H](O)[C@@H]1O)C[C@H]1O[C@@H](CC(=O)NC(C)C)[C@H](O)[C@@H]1O", "inhibition": "inconclusive: 16%"}, {"smiles": "CCN(C(=O)Cn1nnnc1N)C1(C(=O)Nc2ccccc2)CCCCC1", "inhibition": "inconclusive: 13%"}, {"smiles": "O=C(c1cnn2c1CCCC2)N(Cc1ccccn1)CC1CCCO1", "note": "(stereo not drawn)", "inhibition": "inconclusive: 20%"}, {"smiles": "Nc1ccc2oc(-c3cc(F)c(F)cc3Cl)nc2c1", "inhibition": "inactive"}, {"smiles": "O=C(Nc1c(Cl)c(Cl)c(O)c(Cl)c1Cl)c1ccccc1", "inhibition": "inactive"}, {"smiles": "CC1(C(=O)N2CCCC(c3[nH]ncc3Cc3ccccc3)C2)CCNCC1", "note": "(stereo not drawn)", "inhibition": "inconclusive: 19%"}, {"smiles": "COc1ccc(S(=O)(=O)NC2CCCCC2C)cc1OC", "note": "(stereo not drawn)", "inhibition": "active: 34%"}, {"smiles": "O=C(NC[C@H]1O[C@@H](CO)[C@@H](O)[C@H]1N1CCOCC1)Nc1cccc(Cl)c1", "inhibition": "inactive"}, {"smiles": "COc1ccc(C(=O)Nc2ccc([C@@H](O)[C@H]3COCC(=O)N3Cc3ccc(F)cc3)cc2)cc1OC", "inhibition": "inconclusive: 17%"}, {"smiles": "O=C(CN1C(=O)CCSc2ccccc21)NC1CCCCC1", "inhibition": "inconclusive: 12%"}, {"smiles": "Cc1ccc(-n2[nH]c(=O)c(C3=c4ccccc4=NC3=O)c2O)cc1Cl", "inhibition": "inactive"}, {"smiles": "CC(C)c1nc2cc(-c3ccn[nH]3)ccc2o1", "inhibition": "inconclusive: 19%"}, {"smiles": "CC1CCCC[C@H]2C(=O)C=C[C@H](O)[C@@H]2CC(=O)O1", "note": "(stereo partly drawn)", "inhibition": "active: 46%"}, {"smiles": "Cc1ccc(C2=NN(C(=O)c3ccccc3Br)C(O)(C(F)(F)F)C2)cc1", "note": "(stereo not drawn)", "inhibition": "inactive"}, {"smiles": "CC1=C(C(=O)N(C)Cc2csc(C(C)C)n2)C(c2cccnc2)NC(=O)N1", "note": "(stereo not drawn)", "inhibition": "inconclusive: 18%"}, {"smiles": "COc1ccc(-c2ccnc(N[C@H]3CO[C@H]4[C@@H]3OC[C@@H]4NC(=O)CCCC(=O)O)n2)cc1", "inhibition": "inconclusive: 27%"}, {"smiles": "N=C1c2ccccc2CN1CC(=O)c1ccc2c(c1)OCCO2", "inhibition": "inconclusive: 13%"}, {"smiles": "CC1CN(c2nc(-c3ccc([N+](=O)[O-])cc3)cs2)CC(C)O1", "note": "(stereo not drawn)", "inhibition": "inconclusive: 27%"}, {"smiles": "Cc1cnc(SCCN2CCOCC2)nc1C1CCCN(C(=O)c2ccc3c(c2)OCO3)C1", "note": "(stereo not drawn)", "inhibition": "inconclusive: 11%"}, {"smiles": "CCOc1ccc(-c2ncnn2-c2cccc(Cl)c2C)cc1", "inhibition": "inconclusive: 22%"}, {"smiles": "COC(=O)c1c(C)oc2ccc(N(C(=O)C3CCCCC3)S(=O)(=O)c3ccc(F)cc3)cc12", "inhibition": "inconclusive: 11%"}, {"smiles": "O=C(CSCc1ccccc1)Nc1c(-c2ccc(F)cc2)nc2ccccn12", "inhibition": "inactive"}, {"smiles": "Cc1ncsc1CCC(=O)NCc1ccccc1-n1ccnc1C", "inhibition": "inactive"}, {"smiles": "O=C(NC[C@H]1O[C@@H](CO)[C@@H](O)[C@H]1N1CCCC1)c1ccc(C(F)(F)F)cc1", "inhibition": "inconclusive: 16%"}, {"smiles": "CCCCc1nncn1-c1cc(C)ccc1OC", "inhibition": "inconclusive: 15%"}, {"smiles": "COc1ccc(Nc2ncnc3nc[nH]c23)c(OC)c1", "inhibition": "inconclusive: 10%"}, {"smiles": "OC1CCCN(c2ccnc(N3CCN(CCc4ccccc4)CC3)n2)C1", "note": "(stereo not drawn)", "inhibition": "inactive"}, {"smiles": "CC(C)C1CN(C(=O)c2ccc(-n3cnnc3)cc2)CCC(=O)N1CC1CC1", "note": "(stereo not drawn)", "inhibition": "inactive"}, {"smiles": "CCCN1CCN(CCCNC(=O)CN2C(=O)C(CC)Oc3ccccc32)CC1", "note": "(stereo not drawn)", "inhibition": "inconclusive: 16%"}, {"smiles": "Fc1ccc(CN2CCCN(Cc3nc(-c4ccccn4)no3)CC2)cc1", "inhibition": "inactive"}, {"smiles": "COCCNC(=O)C[C@@H]1O[C@H](CNC(C)=O)[C@@H](O)[C@H]1O", "inhibition": "inconclusive: 25%"}]}]}
